Source: doi:10.1101/2025.06.18.660428
These are yes or no findings as the source states them, for the method shown. Binding seen in cells or lysates may run through a third protein. A result given as binding can be weak or reduced; the word gives no strength.

The chains behind the UniProt entries cited, without tags or fusion partners.
UniProt P98170, whole entry: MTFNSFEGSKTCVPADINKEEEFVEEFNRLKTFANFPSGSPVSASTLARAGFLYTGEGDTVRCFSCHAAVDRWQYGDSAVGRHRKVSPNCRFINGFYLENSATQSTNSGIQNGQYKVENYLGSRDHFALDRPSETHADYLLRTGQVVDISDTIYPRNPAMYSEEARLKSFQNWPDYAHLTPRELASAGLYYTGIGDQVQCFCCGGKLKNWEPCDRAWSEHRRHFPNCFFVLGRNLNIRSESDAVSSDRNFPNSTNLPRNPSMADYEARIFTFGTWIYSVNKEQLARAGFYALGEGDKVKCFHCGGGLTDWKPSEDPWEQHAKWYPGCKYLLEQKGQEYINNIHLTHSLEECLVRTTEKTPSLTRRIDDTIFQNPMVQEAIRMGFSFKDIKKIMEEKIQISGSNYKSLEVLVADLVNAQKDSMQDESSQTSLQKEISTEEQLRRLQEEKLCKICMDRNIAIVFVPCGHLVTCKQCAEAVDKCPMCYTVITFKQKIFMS

Experiments:
[1] = molecular target: Flag-XIAP (X-linked inhibitor of apoptosis protein) (UniProt P98170); test: co-IP
[2] = molecular target: HA-tagged soluble E-cadherin (sEcad, 1-707aa) (human) (UniProt P12830); test: co-IP

binding [1] | binding [2] | Substance
binds |  | HA-tagged soluble E-cadherin (sEcad, 1-707aa) (from UniProt P12830) (domain or fragment)
 | binds | Flag-XIAP (X-linked inhibitor of apoptosis protein) (from UniProt P98170 1-497)
